The text below walks through data of publication PMC12040169 (PLOS Biology, 2025).

This is one part of the list.

This assay deals with T1, CTL2-GFP (C. trachomatis L2/434/Bu, GFP-expressing).
T1 construct: L2/434/Bu, GFP-expressing
The arrangement: species or system HeLa; Intracellular C. trachomatis growth in HeLa cells, bulk GFP fluorescence relative to DMSO. The note with it: bulk GFP, single well; 28.5 h, 10 µM; inhibitor.
With `Cc1ccc(N)c(C(=O)CCCCC(=O)O)c1` [CBK260970], the “% of control remaining” value amounted to 107.888%.

With `Cc1noc(C)c1CN1CCC(c2ccccc2)CC1` [CBK306001], the “% of control remaining” value worked out at 115.655%.

In the case of `CC(C)(C)OC(=O)N1CCC[C@@H]([C@H](O)c2nccs2)C1` [CBK284283], the “% of control remaining” value is on record as 91.1404%.

With `Cc1c(C)[n+]([O-])c2cc(N3CCN(C)CC3)c(Cl)cc2[n+]1[O-]` [CBK263503], the “% of control remaining” value worked out at 115.248%.

With `Cc1cccc(C)c1OCC(=O)N1CCC(c2cc(C(=O)NC(C)C)c3ccccc3n2)C1` (stereo not shown) [CBK285916], the “% of control remaining” value was 93.8398%.

On to `CC(C(=O)NC1(C#N)CCCCC1)N1CCOC(CN(C)C)C1` (stereo not shown) [CBK305155], for which the “% of control remaining” value came out at 78.8723%.

Regarding `Cc1cc(N2CCOCC2)c2c(N)c(C)cc(C)c2n1` [CBK126908], the “% of control remaining” value is listed as 148.99%.

Consider `CCc1noc(C(C)N2CCN(CC(=O)NCc3ccco3)CC2)n1` (stereo not shown) [CBK305368], for which the “% of control remaining” value stood at 91.1083%.

For `O=C(c1ccccc1)n1cc(-c2ccccn2)c(N2CCOCC2)n1` [CBK021010], the “% of control remaining” value was determined as 110.211%.

On to `COc1ccc(/C=C/c2nc(C#N)c(NCc3cccnc3)o2)cc1OC` [CBK269240], for which the “% of control remaining” value was found to be 107.273%.

Regarding `OC1(c2cccnc2)C2CCCC1CN(Cc1cccc(F)c1F)C2` (stereo not shown) [CBK285205], the “% of control remaining” value was 60.9866%.

Take `Cc1nc(C)c(C(=O)N2CCc3[nH]c4ccccc4c3C2)o1` [CBK281873]: the “% of control remaining” value worked out at 94.7767%.

Take `O=C(NCC1CCCCC1)N1CCN(c2ccc(F)cc2)CC1` [CBK156397]: the “% of control remaining” value amounted to 126.828%.

Regarding `Oc1ccc(/C=N/Nc2nncc(-c3ccccc3)n2)c(O)c1O` [CBK262492], the “% of control remaining” value was determined as 58.496%.

Consider `Oc1ccc(CN2CCN(c3ncccn3)CC2)cc1` [CBK261567], for which the “% of control remaining” value came out at 94.8174%.

On to `CC(=O)NCCNC(=O)c1cc(Br)c[nH]1` [CBK297767], for which the “% of control remaining” value came to 120.816%.

On to `O=C(c1cccc(NS(=O)(=O)c2cc(F)c(Br)cc2F)c1)N1CCOCC1` [CBK039007], for which the “% of control remaining” value amounted to 109.205%.

For the compound `Cc1csc2ncnc(NCCc3ccccn3)c12` [CBK017060], the “% of control remaining” value was 105.245%.

Turning to `Cc1nc(C2CN(Cc3c(Cl)ccc4cccnc34)CCO2)no1` (stereo not shown) [CBK305317], the “% of control remaining” value amounted to 117.582%.

Turning to `CC1(C)CC(=NNC(=O)CCc2cc(C(C)(C)C)c(O)c(C(C)(C)C)c2)CC(C)(C)N1` [CBK261952], the “% of control remaining” value worked out at 98.0995%.

Regarding `O=C(O)c1cccc(-n2c(S)nnc2-c2ccc3ccccc3n2)c1` [CBK265810], the “% of control remaining” value is 108.673%.

Regarding `O=C(N/N=C/c1cc(Br)cc(Br)c1O)C(Oc1ccccc1)Oc1ccccc1` [CBK262164], the “% of control remaining” value is 116.189%.

With `O=C(Nc1cnc(-c2cccc(C(F)(F)F)c2)c(-c2cccnc2)n1)c1cc(-c2ccco2)n[nH]1` [CBK036878], the “% of control remaining” value is listed as 125.2%.

On to `Cc1cc2c(s1)c1cnn(CC(=O)N(C)C)c(=O)c1n2C` [CBK284231], for which the “% of control remaining” value is reported as 116.683%.

For the compound `COc1ccc(Nc2nc(-c3cccnc3)cs2)c(OC)c1` [CBK126814], the “% of control remaining” value was found to be 122.013%.

Regarding `OCC1CCCN1c1nc(-c2ccc(Oc3ccccc3)cc2)cn2ccnc12` (stereo not shown) [CBK066713], the “% of control remaining” value was 162.592%.

For `CN1CCCC(OC(=O)C2CCCCC2)C1` (stereo not shown) [CBK090234], the “% of control remaining” value is 108.252%.

On to `COc1cc(C(=O)N2CCN(S(=O)(=O)c3ccccc3[N+](=O)[O-])CC2)cc(OC)c1OC` [CBK264182], for which the “% of control remaining” value turned out to be 125.54%.

In the case of `Cn1cc(C2CNCCN2C(=O)CCCc2csc3ccccc23)cn1` (stereo not shown) [CBK304274C], the “% of control remaining” value was 132.463%.

Consider `CN(C)CCN1CCN(c2nc(-c3ccc(S(C)(=O)=O)cc3)cnc2N)CC1` [CBK063457], for which the “% of control remaining” value was found to be 111.695%.

Turning to `CNC(=O)c1sc2ccccc2c1C1CCN(C(=O)CCN(C)c2ccc(F)cc2)C1` (stereo not shown) [CBK285878], the “% of control remaining” value turned out to be 98.7405%.

Regarding `N#Cc1nonc1NCn1nnc2ccccc21` [CBK062650], the “% of control remaining” value is 120.908%.

Regarding `O=C(c1cc(-c2ccccn2)n[nH]1)N1CCC(c2ccccc2)C1` (stereo not shown) [CBK281852], the “% of control remaining” value turned out to be 139.091%.

In the case of `OCC1CCCCC1NCCCC(c1ccc(F)cc1)c1ccc(F)cc1` (stereo not shown) [CBK015830C], the “% of control remaining” value stood at 137.723%.

On to `CC(C)CC(C(=O)Nc1ccc(Br)cc1)N1C(=O)c2ccccc2C1=O` (stereo not shown) [CBK264253], for which the “% of control remaining” value was determined as 92.0005%.

As for `Cc1ccc(S(=O)(=O)N(CC(=O)Nc2cccnc2)c2cccc([N+](=O)[O-])c2)cc1` [CBK266404], the “% of control remaining” value turned out to be 101.303%.

As to `NC(=O)c1ccc(-c2cc(Nc3ccc(CCO)cc3)ncn2)cc1` [CBK090773], the “% of control remaining” value stood at 110.252%.

Consider `COc1ccccc1CNCc1ccc(CNC(=O)OC(C)(C)C)cc1` [CBK056702], for which the “% of control remaining” value worked out at 100.097%.

For the compound `Cc1nc(CC(=O)Nc2nn(C)c3cccc(N4CCOCC4)c23)cs1` [CBK306627], the “% of control remaining” value was determined as 126.592%.

For the compound `O=C(Cn1cc(-c2ccc(CN3CCOCC3)cc2)nn1)NCc1cccc(C(F)(F)F)c1` [CBK165803], the “% of control remaining” value came out at 123.604%.

As to `O=C(CN1CCC(C(O)C(=O)NC2CC2)CC1)Nc1cc(Cl)ccc1F` (stereo not shown) [CBK305477], the “% of control remaining” value is 150.457%.

For `Cc1nnc(CN(C)C2CCN(Cc3ccc4c(c3)CCC4)C2)n1C` (stereo not shown) [CBK304450], the “% of control remaining” value stood at 109.551%.

Consider `COc1ccc(C2c3ccccc3C[N+]3(C)CCCN23)cc1` (stereo not shown) [CBK008769], for which the “% of control remaining” value is given as 98.8046%.

As to `Clc1ccccc1CSc1nnc2c(n1)OC=Nc1ccccc1-2` [CBK265085], the “% of control remaining” value came out at 121.419%.

On to `c1ccc(Nc2nc(-c3ccco3)cn3ccnc23)cc1` [CBK037947], for which the “% of control remaining” value came to 167.083%.

For the compound `CC(C)OCC(O)C[S+]([O-])Cc1ccccc1` (stereo not shown) [CBK261761], the “% of control remaining” value worked out at 118.852%.

As to `CC(C)(C)OC(=O)N(Cc1cccs1)S(C)(=O)=O` [CBK019338], the “% of control remaining” value stood at 159.647%.

`Cc1c(Cl)cccc1S(=O)(=O)Nc1ccc(C(=O)O)cc1` [CBK034050]: the “% of control remaining” value is 96.8235%.

As for `O=S(=O)(Nc1nncs1)c1ccccc1` [CBK045489], the “% of control remaining” value was 121.265%.

As to `CC(C)(CN)CN(Cc1cccc2ccccc12)C(=O)NC1C[C@H]1c1ccccc1` (stereo partly shown) [CBK000490C], the “% of control remaining” value is 65.9752%.

Consider `CCOc1ccc(Nc2cc(Cl)nc(N)n2)cc1` [CBK288069], for which the “% of control remaining” value is on record as 86.0106%.

For `CC(NC(=O)N1CCCCC1CO)c1ccccc1` (stereo not shown) [CBK155988], the “% of control remaining” value came to 122.757%.

As to `COc1cc(C(c2c(C)n(C)n(-c3ccccc3)c2=O)c2c(C)n(C)n(-c3ccccc3)c2=O)ccc1O` [CBK261690], the “% of control remaining” value was determined as 87.0465%.

As for `CCOc1ccccc1Nc1nc(N)nc(CN2CCCCC2C)n1` (stereo not shown) [CBK266548], the “% of control remaining” value was 155.337%.

For `Cc1ncsc1CCC(=O)NCC1CCN(c2ccccc2F)C1` (stereo not shown) [CBK304675], the “% of control remaining” value is 67.2735%.

Consider `Cc1cc(C)n(CCCNC(=O)Cc2csc(N3CCCC3=O)n2)n1` [CBK305708], for which the “% of control remaining” value was determined as 101.398%.

In the case of `N#Cc1cccc(S(=O)(=O)Nc2ccc(-c3nnn[nH]3)cc2)c1` [CBK155427], the “% of control remaining” value is on record as 121.079%.

Consider `CC(C)(C)c1ccc(-c2nc(Nc3cccc(C(=O)O)c3)c3ccccc3n2)cc1` [CBK265229C], for which the “% of control remaining” value amounted to 92.95%.

As for `O=C(O)C1CCCCC1C(=O)N1CCN(Cc2cccc(Cl)c2)CC1` (stereo not shown) [CBK270330], the “% of control remaining” value is on record as 127.922%.

`COC(=O)Nc1ccc(S(=O)(=O)N2CCCC(C(=O)Nc3cccc(C(F)(F)F)c3)C2)cc1` (stereo not shown) [CBK265248]: the “% of control remaining” value came out at 71.5547%.

Regarding `CN1CCC(N(C)Cc2ccc3c(c2)OCO3)CC1` [CBK261564], the “% of control remaining” value was determined as 118.777%.

`COc1cccc(Nc2cc(-c3ccco3)ncn2)c1OC` [CBK090727]: the “% of control remaining” value is given as 155.601%.

For the compound `COc1cc(/C=C/c2[nH]c(=O)[nH]c(=O)c2[N+](=O)[O-])cc(Br)c1OCC(=O)O` [CBK267977], the “% of control remaining” value is 106.574%.

On to `Cc1ccsc1C(=O)N1CCC(c2n[nH]c3ncccc23)CC1` [CBK284910], for which the “% of control remaining” value was found to be 124.313%.

With `Cn1c(C2CC2)nc2c1CCN(Cc1cn3cc(Cl)ccc3n1)C2` [CBK305314], the “% of control remaining” value worked out at 123.104%.

Regarding `NC(=O)C1(N2CCCCC2)CCN(CC(=O)Nc2ccc(Oc3ccccc3)cc2)CC1` [CBK265774], the “% of control remaining” value is recorded as 118.045%.

For the compound `CCCOc1ccc(S(=O)(=O)NCc2ccc3c(c2)OCO3)c2ccccc12` [CBK269059], the “% of control remaining” value came to 104.439%.

In the case of `COc1ccc(OC)c(NC(=O)CNC(=O)c2ccccc2F)c1` [CBK267846], the “% of control remaining” value is given as 132.732%.

Regarding `CCC1C=CCN1S(=O)(=O)c1cccc(C(=O)NCc2cnn(C)c2)c1` (stereo not shown) [CBK307536], the “% of control remaining” value is on record as 128.836%.

As to `O=C(NCCn1c(=O)oc2ccccc21)C(c1cccs1)c1cccs1` [CBK286198], the “% of control remaining” value is recorded as 128.893%.

On to `COc1cc(NC(=O)N2CCN(CCc3ccccc3)CC2)cc(OC)c1OC` [CBK158933], for which the “% of control remaining” value was found to be 198.05%.

`O=C(O)C1CC(C(=O)O)C(C(=O)O)CC1C(=O)O` (stereo not shown) [CBK261332]: the “% of control remaining” value is listed as 100%.

Regarding `COc1cccc2c1cc(C(=O)NCCn1ccnc1C)n2C` [CBK283267], the “% of control remaining” value is recorded as 104.326%.

Regarding `CSc1nccc(N2CCC(NCCn3c(C)cc(C)nc3=O)CC2)n1` [CBK307070], the “% of control remaining” value is reported as 98.4704%.

With `CC(=O)Nc1cccc(-n2nnnc2SCCCc2nc3ccccc3o2)c1` [CBK298317], the “% of control remaining” value is reported as 128.021%.

With `O=C1CN(C(=O)NCc2cccc3ccccc23)CCN1` [CBK155852], the “% of control remaining” value is listed as 111.501%.

As to `C=CCn1c2ccccc2c2nnc(SCC(=O)OCN3C(=O)c4ccccc4C3=O)nc21` [CBK263231], the “% of control remaining” value was determined as 105.901%.

`COc1ccc(C(=O)C2=C(O)C(=O)N(CCCN(C)C)C2c2ccc(Cl)c(Cl)c2)c(C)c1` (stereo not shown) [CBK264896]: the “% of control remaining” value is 100%.

Regarding `Cc1ccc(OCCOc2cccc(/C=N/n3cnnc3)c2)cc1` [CBK263028], the “% of control remaining” value was determined as 95.7929%.
